For part of these data: Expression values are those of the mRNA of the gene that encodes the peptide; a gene is named only where it was looked up.
How the values were obtained:
[1] = test system: source genes of the peptides (mRNA) in tumor and normal tissue; test: Expression profiling of source genes by Affymetrix microarrays (target coverage); set-up: species or system human; settings: over-expression = more than 1.5-fold higher expression on tumor vs. normal tissue with highest expression, gene with minimal coverage decisive; for Target coverage for source genes of selected peptides, BPHI/PCA (%): BPHI/PCA (prostate cancer) samples; for Target coverage for source genes of selected peptides, CRC (%): CRC tumor samples; for Target coverage for source genes of selected peptides, GB (%): GB tumor samples; for Target coverage for source genes of selected peptides, GC (%): GC tumor samples; for Target coverage for source genes of selected peptides, HCC (%): HCC tumor samples; for Target coverage for source genes of selected peptides, NSCLC (%): NSCLC tumor samples; for Target coverage for source genes of selected peptides, PC (%): PC tumor samples; for Target coverage for source genes of selected peptides, RCC (%): RCC tumor samples
[2] = Identification and label-free relative LC-MS quantitation of HLA-presented peptides on tumor and normal tissue samples (XPRESIDENT presentation profiles); set-up: species or system human; settings: for Entities of particular interest: entities where the peptide was over-presented on cancer samples compared to normal tissues; for Additional entities of particular interest (presentation of selected peptides across entities): tumor entities on which the HLA-presented peptide was found, entity abbreviations defined in the title of Table 4B; for cancer tissue samples where the peptide was found to be presented / normal tissue samples where the peptide was found to be presented: FIG. 1A-D, analyses of more than 170 normal tissue samples and 376 cancer samples; for cancer tissues where the peptide was found to be presented / normal tissues where the peptide was found to be presented: FIG. 1E-J and 7A-C, analyses of more than 320 normal tissue samples and 462 cancer samples

42: peptide found in NCAPG (gene looked up) (KQMSISTGL; listed as Homo sapiens) [compound 42]
Target coverage for source genes of selected peptides, BPHI/PCA (%) [1]: I (<19% over-expression = I) | Target coverage for source genes of selected peptides, CRC (%) [1]: IV (>70% = IV) | Target coverage for source genes of selected peptides, GB (%) [1]: III (50-69% = III) | Target coverage for source genes of selected peptides, GC (%) [1]: III (50-69% = III) | Target coverage for source genes of selected peptides, HCC (%) [1]: I (<19% over-expression = I) | Target coverage for source genes of selected peptides, NSCLC (%) [1]: III (50-69% = III) | Target coverage for source genes of selected peptides, PC (%) [1]: I (<19% over-expression = I) | Target coverage for source genes of selected peptides, RCC (%) [1]: I (<19% over-expression = I)

79: peptide found in CCNB2 (gene looked up) (TVLEEIGNRV; listed as Homo sapiens) [compound 79]
Target coverage for source genes of selected peptides, BPHI/PCA (%) [1]: I (<19% over-expression = I) | Target coverage for source genes of selected peptides, CRC (%) [1]: IV (>70% = IV) | Target coverage for source genes of selected peptides, GB (%) [1]: II (20-49% = II) | Target coverage for source genes of selected peptides, GC (%) [1]: II (20-49% = II) | Target coverage for source genes of selected peptides, HCC (%) [1]: I (<19% over-expression = I) | Target coverage for source genes of selected peptides, NSCLC (%) [1]: II (20-49% = II) | Target coverage for source genes of selected peptides, PC (%) [1]: I (<19% over-expression = I) | Target coverage for source genes of selected peptides, RCC (%) [1]: I (<19% over-expression = I)

90: peptide found in HTR3A (gene looked up) (AILNVDEKNQV; listed as Homo sapiens) [compound 90]
Target coverage for source genes of selected peptides, BPHI/PCA (%) [1]: I (<19% over-expression = I) | Target coverage for source genes of selected peptides, CRC (%) [1]: I (<19% over-expression = I) | Target coverage for source genes of selected peptides, GB (%) [1]: I (<19% over-expression = I) | Target coverage for source genes of selected peptides, GC (%) [1]: I (<19% over-expression = I) | Target coverage for source genes of selected peptides, HCC (%) [1]: I (<19% over-expression = I) | Target coverage for source genes of selected peptides, NSCLC (%) [1]: II (20-49% = II) | Target coverage for source genes of selected peptides, PC (%) [1]: I (<19% over-expression = I) | Target coverage for source genes of selected peptides, RCC (%) [1]: I (<19% over-expression = I)

111: peptide found in HMMR (gene looked up) (AQLEGKLVSI; listed as Homo sapiens) [compound 111]
Target coverage for source genes of selected peptides, BPHI/PCA (%) [1]: I (<19% over-expression = I) | Target coverage for source genes of selected peptides, CRC (%) [1]: III (50-69% = III) | Target coverage for source genes of selected peptides, GB (%) [1]: I (<19% over-expression = I) | Target coverage for source genes of selected peptides, GC (%) [1]: III (50-69% = III) | Target coverage for source genes of selected peptides, HCC (%) [1]: I (<19% over-expression = I) | Target coverage for source genes of selected peptides, NSCLC (%) [1]: II (20-49% = II) | Target coverage for source genes of selected peptides, PC (%) [1]: I (<19% over-expression = I) | Target coverage for source genes of selected peptides, RCC (%) [1]: I (<19% over-expression = I)

120: peptide found in RRM2 (gene looked up) (LQLSPLKGLSL; listed as Homo sapiens) [compound 120]
Target coverage for source genes of selected peptides, BPHI/PCA (%) [1]: I (<19% over-expression = I) | Target coverage for source genes of selected peptides, CRC (%) [1]: IV (>70% = IV) | Target coverage for source genes of selected peptides, GB (%) [1]: II (20-49% = II) | Target coverage for source genes of selected peptides, GC (%) [1]: III (50-69% = III) | Target coverage for source genes of selected peptides, HCC (%) [1]: II (20-49% = II) | Target coverage for source genes of selected peptides, NSCLC (%) [1]: III (50-69% = III) | Target coverage for source genes of selected peptides, PC (%) [1]: II (20-49% = II) | Target coverage for source genes of selected peptides, RCC (%) [1]: I (<19% over-expression = I)

249: peptide found in CDK1 (gene looked up) (YLYQILQGI; listed as Homo sapiens) [compound 249]
Target coverage for source genes of selected peptides, BPHI/PCA (%) [1]: I (<19% over-expression = I) | Target coverage for source genes of selected peptides, CRC (%) [1]: IV (>70% = IV) | Target coverage for source genes of selected peptides, GB (%) [1]: IV (>70% = IV) | Target coverage for source genes of selected peptides, GC (%) [1]: IV (>70% = IV) | Target coverage for source genes of selected peptides, HCC (%) [1]: II (20-49% = II) | Target coverage for source genes of selected peptides, NSCLC (%) [1]: IV (>70% = IV) | Target coverage for source genes of selected peptides, PC (%) [1]: III (50-69% = III) | Target coverage for source genes of selected peptides, RCC (%) [1]: II (20-49% = II)

266 (FLLDKPQDL; listed as Homo sapiens) [compound 266]
Entities of particular interest [2]: RCC, OC

272 (FVMEGEPPKL; listed as Homo sapiens) [compound 272]
Entities of particular interest [2]: NSCLC, OC | Additional entities of particular interest (presentation of selected peptides across entities) [2]: CLL, UTC

273 (SLNKQIETV; listed as Homo sapiens) [compound 273]
Entities of particular interest [2]: NSCLC, OC | Additional entities of particular interest (presentation of selected peptides across entities) [2]: AML

275 (AVPPPPSSV; listed as Homo sapiens) [compound 275]
Additional entities of particular interest (presentation of selected peptides across entities) [2]: NSCLC, HCC

276 (RMPTVLQCV; listed as Homo sapiens) [compound 276]
Additional entities of particular interest (presentation of selected peptides across entities) [2]: BPH

279 (VLMDEGAVLTL; listed as Homo sapiens) [compound 279]
Additional entities of particular interest (presentation of selected peptides across entities) [2]: CLL, CRC, NHL

280 (HLWGHALFL; listed as Homo sapiens) [compound 280]
Additional entities of particular interest (presentation of selected peptides across entities) [2]: HCC

281 (LLLESDPKVYSL; listed as Homo sapiens) [compound 281]
Entities of particular interest [2]: PC, OC | Additional entities of particular interest (presentation of selected peptides across entities) [2]: OSCAR, SCLC

282 (SLYALHVKA; listed as Homo sapiens) [compound 282]
Additional entities of particular interest (presentation of selected peptides across entities) [2]: OC, SCLC

283 (ALSELLQQV; listed as Homo sapiens) [compound 283]
Additional entities of particular interest (presentation of selected peptides across entities) [2]: NSCLC, HCC, OC, SCLC, UTC, MEL, CRC, AML, NHL

284 (KLMDPGSLPPL; listed as Homo sapiens) [compound 284]
Entities of particular interest [2]: NSCLC, OC

286 (FLTEMVHFI; listed as Homo sapiens) [compound 286]
Additional entities of particular interest (presentation of selected peptides across entities) [2]: NSCLC, CLL, SCLC, UBC, NHL

288 (SLYKGLLSV; listed as Homo sapiens) [compound 288]
Entities of particular interest [2]: GB, NSCLC, HCC, BPH, OC, RCC, CRC, PC, OSCAR

SEQ ID NO.: 1: peptide found in CENPE (gene looked up) (KLQEKIQEL; listed as Homo sapiens)
cancer tissue samples where the peptide was found to be presented [2]: 31 | normal tissue samples where the peptide was found to be presented [2]: 2

SEQ ID NO.: 2 (SVLEKEIYSI; listed as Homo sapiens)
cancer tissues where the peptide was found to be presented [2]: 52 | normal tissues where the peptide was found to be presented [2]: 2

SEQ ID NO.: 10: peptide found in KIF15 (gene looked up) (QLIEKNWLL; listed as Homo sapiens)
cancer tissue samples where the peptide was found to be presented [2]: 29 | normal tissue samples where the peptide was found to be presented [2]: 1

SEQ ID NO.: 11 (LLDPKTIFL; listed as Homo sapiens)
cancer tissue samples where the peptide was found to be presented [2]: 13

SEQ ID NO.: 40 (KIWEELSVLEV; listed as Homo sapiens)
cancer tissues where the peptide was found to be presented [2]: 8

SEQ ID NO.: 43: peptide found in CCR8 (gene looked up) (LLIPFTIFM; listed as Homo sapiens)
cancer tissues where the peptide was found to be presented [2]: 16

SEQ ID NO.: 67 (FLIENLLAA; listed as Homo sapiens)
cancer tissues where the peptide was found to be presented [2]: 7

SEQ ID NO.: 84 (FLLEREQLL; listed as Homo sapiens)
cancer tissues where the peptide was found to be presented [2]: 24

SEQ ID NO.: 152: peptide found in CXCR5 (gene looked up) (ILVTSIFFL; listed as Homo sapiens)
cancer tissues where the peptide was found to be presented [2]: 16 | normal tissues where the peptide was found to be presented [2]: 6

SEQ ID NO.: 156: peptide found in CYSLTR1 (gene looked up) (VILTSSPFL; listed as Homo sapiens)
cancer tissues where the peptide was found to be presented [2]: 11 | normal tissues where the peptide was found to be presented [2]: 3

SEQ ID NO.: 235: peptide found in CLSPN (gene looked up) (SLLNQPKAV; listed as Homo sapiens)
cancer tissues where the peptide was found to be presented [2]: 30

SEQ ID NO.: 243 (GLAEFQENV; listed as Homo sapiens)
cancer tissues where the peptide was found to be presented [2]: 67
